The supplement of paper PMC6411743
± gives the standard deviation of the averaged measurements. Only a part is listed here, and it is no random draw.

Columns and labels:
Assay in all cases: NP40-soluble protein abundance relative to vehicle (solubility fold change) (ratio); higher = more soluble protein in presence of AMP-PNP
[1] = biological target: T1, A0A0A6YY96|P48200 (UniProt P48200)
T1 sequence (whole entry): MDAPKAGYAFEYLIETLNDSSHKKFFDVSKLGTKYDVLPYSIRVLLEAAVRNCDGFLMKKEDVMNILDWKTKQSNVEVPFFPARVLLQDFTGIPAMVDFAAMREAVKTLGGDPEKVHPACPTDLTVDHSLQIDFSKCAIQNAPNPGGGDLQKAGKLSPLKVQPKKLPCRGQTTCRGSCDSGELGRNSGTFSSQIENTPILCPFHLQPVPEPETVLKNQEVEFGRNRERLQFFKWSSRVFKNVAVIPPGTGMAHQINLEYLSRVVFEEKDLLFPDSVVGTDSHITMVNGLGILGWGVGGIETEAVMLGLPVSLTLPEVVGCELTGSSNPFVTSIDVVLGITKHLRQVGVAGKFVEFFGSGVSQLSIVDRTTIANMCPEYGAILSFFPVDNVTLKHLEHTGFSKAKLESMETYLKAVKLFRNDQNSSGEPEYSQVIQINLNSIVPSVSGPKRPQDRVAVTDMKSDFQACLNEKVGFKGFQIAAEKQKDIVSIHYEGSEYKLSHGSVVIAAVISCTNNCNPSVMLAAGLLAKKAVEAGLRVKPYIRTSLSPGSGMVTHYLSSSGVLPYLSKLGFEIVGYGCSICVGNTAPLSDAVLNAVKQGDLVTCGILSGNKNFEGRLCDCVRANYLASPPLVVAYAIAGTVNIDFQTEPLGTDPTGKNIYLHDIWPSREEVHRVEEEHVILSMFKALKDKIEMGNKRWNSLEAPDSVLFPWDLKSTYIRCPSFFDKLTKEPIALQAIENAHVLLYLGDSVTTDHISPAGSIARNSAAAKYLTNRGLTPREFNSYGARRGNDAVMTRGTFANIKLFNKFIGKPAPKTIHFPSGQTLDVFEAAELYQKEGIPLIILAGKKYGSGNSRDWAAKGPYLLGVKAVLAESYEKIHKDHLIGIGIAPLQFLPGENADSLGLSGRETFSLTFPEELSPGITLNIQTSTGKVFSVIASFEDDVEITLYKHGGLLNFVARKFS
Method in brief: (§1)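 Eight concentrations, 0.1 to 10 mM, were tested on Jurkat crude lysate for 10 min at room temperature and then 3 min at 37 °C, in three independent experiments. The lysate was solubilised with 0.8% NP40 and benzonase, ultracentrifuged, and the supernatant TMT-labelled for LC-MS/MS. Each value is the fold change against the detergent-processed vehicle in its own replicate, from vsn-normalised intensities.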

[2] = biological target: T2, A0A0C4DFV0|Q9H469 (UniProt Q9H469)
T2 sequence (whole entry): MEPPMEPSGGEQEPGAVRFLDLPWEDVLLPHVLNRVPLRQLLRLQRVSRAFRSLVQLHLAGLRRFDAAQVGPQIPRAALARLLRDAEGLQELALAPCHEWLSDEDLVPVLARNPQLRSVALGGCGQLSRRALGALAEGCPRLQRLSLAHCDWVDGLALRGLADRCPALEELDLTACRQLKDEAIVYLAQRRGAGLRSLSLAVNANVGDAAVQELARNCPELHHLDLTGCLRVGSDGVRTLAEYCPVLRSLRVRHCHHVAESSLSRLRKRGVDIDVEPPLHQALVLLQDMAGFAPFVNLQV
Method in brief: as §1

[3] = biological target: T3, A0A0C4DFX7|Q9H967 (UniProt Q9H967)
T3 sequence (whole entry): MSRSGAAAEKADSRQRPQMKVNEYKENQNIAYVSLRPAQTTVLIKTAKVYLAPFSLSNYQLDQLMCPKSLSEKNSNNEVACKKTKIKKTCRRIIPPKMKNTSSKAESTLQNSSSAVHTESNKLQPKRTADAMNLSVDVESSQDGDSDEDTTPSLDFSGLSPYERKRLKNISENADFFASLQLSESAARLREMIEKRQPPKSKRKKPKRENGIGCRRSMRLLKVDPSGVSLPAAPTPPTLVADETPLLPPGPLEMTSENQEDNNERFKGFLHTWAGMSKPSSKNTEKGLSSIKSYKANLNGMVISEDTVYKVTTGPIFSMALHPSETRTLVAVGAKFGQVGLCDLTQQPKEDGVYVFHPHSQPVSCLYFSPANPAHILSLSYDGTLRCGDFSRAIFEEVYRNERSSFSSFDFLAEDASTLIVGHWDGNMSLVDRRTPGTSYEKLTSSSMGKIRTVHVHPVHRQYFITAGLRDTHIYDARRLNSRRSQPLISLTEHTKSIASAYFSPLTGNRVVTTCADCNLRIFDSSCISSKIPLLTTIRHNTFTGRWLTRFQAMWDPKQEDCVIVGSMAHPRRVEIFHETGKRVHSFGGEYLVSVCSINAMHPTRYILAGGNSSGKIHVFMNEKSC
Method in brief: as §1

[4] = biological target: T4, A0A0C4DG89|Q7L014 (UniProt Q7L014)
T4 sequence (whole entry): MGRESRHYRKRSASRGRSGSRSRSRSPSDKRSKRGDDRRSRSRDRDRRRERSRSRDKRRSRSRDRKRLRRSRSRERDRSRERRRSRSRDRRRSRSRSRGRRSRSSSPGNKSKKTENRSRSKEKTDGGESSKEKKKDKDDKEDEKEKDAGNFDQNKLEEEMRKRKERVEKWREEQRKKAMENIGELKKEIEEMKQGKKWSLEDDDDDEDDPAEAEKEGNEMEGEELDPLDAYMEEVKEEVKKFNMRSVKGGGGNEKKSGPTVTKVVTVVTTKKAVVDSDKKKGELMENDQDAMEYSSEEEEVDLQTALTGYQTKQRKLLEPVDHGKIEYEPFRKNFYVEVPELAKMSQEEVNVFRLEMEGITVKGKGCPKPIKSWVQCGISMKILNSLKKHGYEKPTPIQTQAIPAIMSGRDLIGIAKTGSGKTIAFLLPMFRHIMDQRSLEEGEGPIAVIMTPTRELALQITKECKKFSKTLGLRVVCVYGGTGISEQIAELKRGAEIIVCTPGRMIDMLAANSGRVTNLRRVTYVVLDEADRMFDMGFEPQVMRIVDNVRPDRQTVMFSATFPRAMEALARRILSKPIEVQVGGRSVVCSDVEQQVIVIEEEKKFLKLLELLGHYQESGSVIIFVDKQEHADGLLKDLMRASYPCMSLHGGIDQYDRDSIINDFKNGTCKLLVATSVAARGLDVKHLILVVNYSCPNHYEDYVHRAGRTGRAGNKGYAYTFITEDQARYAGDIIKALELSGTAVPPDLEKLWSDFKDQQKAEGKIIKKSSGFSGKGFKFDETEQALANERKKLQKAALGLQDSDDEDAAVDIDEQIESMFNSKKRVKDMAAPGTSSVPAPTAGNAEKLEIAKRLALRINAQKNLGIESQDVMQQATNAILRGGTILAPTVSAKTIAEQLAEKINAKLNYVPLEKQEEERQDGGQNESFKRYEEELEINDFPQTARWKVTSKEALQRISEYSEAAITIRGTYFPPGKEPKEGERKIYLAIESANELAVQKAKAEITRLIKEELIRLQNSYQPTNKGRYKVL
Method in brief: as §1

[5] = biological target: T5, A0A0C4DGS5|B7ZC06 and related entries (UniProt Q08379)
T5 sequence (whole entry): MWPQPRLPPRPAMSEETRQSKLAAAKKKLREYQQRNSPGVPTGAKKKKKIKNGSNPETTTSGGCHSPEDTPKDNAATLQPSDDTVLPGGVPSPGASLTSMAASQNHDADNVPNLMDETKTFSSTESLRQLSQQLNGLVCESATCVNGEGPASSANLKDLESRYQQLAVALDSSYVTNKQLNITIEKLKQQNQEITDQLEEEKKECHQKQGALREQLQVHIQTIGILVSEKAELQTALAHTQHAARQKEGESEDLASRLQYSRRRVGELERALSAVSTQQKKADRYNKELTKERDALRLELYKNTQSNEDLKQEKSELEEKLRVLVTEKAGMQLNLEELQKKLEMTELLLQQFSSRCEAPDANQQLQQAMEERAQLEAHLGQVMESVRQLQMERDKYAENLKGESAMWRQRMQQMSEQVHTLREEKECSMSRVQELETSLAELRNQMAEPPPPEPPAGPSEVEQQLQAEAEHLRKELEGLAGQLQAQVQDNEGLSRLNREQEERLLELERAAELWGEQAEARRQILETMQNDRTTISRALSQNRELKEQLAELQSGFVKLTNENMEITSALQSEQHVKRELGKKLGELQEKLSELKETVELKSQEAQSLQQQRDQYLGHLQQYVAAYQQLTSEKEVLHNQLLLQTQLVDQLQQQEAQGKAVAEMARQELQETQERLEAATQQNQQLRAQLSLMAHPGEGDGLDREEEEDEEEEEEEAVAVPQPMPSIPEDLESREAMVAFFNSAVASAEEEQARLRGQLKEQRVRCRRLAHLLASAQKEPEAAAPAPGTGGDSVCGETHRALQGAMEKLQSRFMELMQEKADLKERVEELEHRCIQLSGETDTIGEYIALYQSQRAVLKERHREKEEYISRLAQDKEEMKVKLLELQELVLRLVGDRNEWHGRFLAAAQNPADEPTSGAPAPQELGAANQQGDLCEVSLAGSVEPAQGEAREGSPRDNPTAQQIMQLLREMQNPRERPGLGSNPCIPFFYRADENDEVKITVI
Method in brief: as §1

Q: Nc1ncnc2c1ncn2[C@@H]1O[C@H](COP(=O)(O)OP(=O)(O)NP(=O)(O)O)[C@@H](O)[C@H]1O [adenylyl imidodiphosphate] was tested. Which NP40-soluble protein abundance ([1]; concentration: 1mM) did it give?
A: 1.01 ± 0.063

Q: What about the NP40-soluble protein abundance ([1]; concentration: 2mM) of the same compound?
A: 1 ± 0.047

Q: And the NP40-soluble protein abundance ([1]; concentration: 4mM)?
A: 0.971 ± 0.052

Q: And the NP40-soluble protein abundance ([1]; concentration: 6mM)?
A: 1 ± 0.011

Q: And the NP40-soluble protein abundance ([1]; concentration: 8mM)?
A: 0.998 ± 0.023

Q: What about the NP40-soluble protein abundance ([1]; concentration: 10mM) of the same compound?
A: 0.974 ± 0.044

Q: And the NP40-soluble protein abundance ([2]; concentration: 1mM)?
A: 0.981 ± 0.025

Q: And the NP40-soluble protein abundance ([2]; concentration: 2mM)?
A: 0.951 ± 0.032

Q: And the NP40-soluble protein abundance ([2]; concentration: 4mM)?
A: 0.979 ± 0.023

Q: And the NP40-soluble protein abundance ([2]; concentration: 6mM)?
A: 0.972 ± 0.066

Q: What about the NP40-soluble protein abundance ([2]; concentration: 8mM) of the same compound?
A: 0.952 ± 0.019

Q: What about the NP40-soluble protein abundance ([2]; concentration: 10mM) of the same compound?
A: 0.9788 ± 0.0055

Q: And the NP40-soluble protein abundance ([3]; concentration: 1mM)?
A: 0.993 ± 0.03

Q: And the NP40-soluble protein abundance ([3]; concentration: 2mM)?
A: 0.995 ± 0.019

Q: And the NP40-soluble protein abundance ([3]; concentration: 4mM)?
A: 1.05 ± 0.04

Q: What about the NP40-soluble protein abundance ([3]; concentration: 6mM) of the same compound?
A: 1.071 ± 0.002

Q: And the NP40-soluble protein abundance ([3]; concentration: 8mM)?
A: 1.07 ± 0.012

Q: What about the NP40-soluble protein abundance ([3]; concentration: 10mM) of the same compound?
A: 1.09 ± 0.046

Q: What about the NP40-soluble protein abundance ([4]; concentration: 1mM) of the same compound?
A: 0.9721 ± 0.0097

Q: And the NP40-soluble protein abundance ([4]; concentration: 2mM)?
A: 0.942 ± 0.026

Q: And the NP40-soluble protein abundance ([4]; concentration: 4mM)?
A: 0.912 ± 0.032

Q: And the NP40-soluble protein abundance ([4]; concentration: 6mM)?
A: 0.928 ± 0.021

Q: And the NP40-soluble protein abundance ([4]; concentration: 8mM)?
A: 0.938 ± 0.045

Q: What about the NP40-soluble protein abundance ([4]; concentration: 10mM) of the same compound?
A: 0.975 ± 0.045

Q: What about the NP40-soluble protein abundance ([5]; concentration: 1mM) of the same compound?
A: 1.02 ± 0.032

Q: And the NP40-soluble protein abundance ([5]; concentration: 2mM)?
A: 1.08 ± 0.064

Q: And the NP40-soluble protein abundance ([5]; concentration: 4mM)?
A: 1.03 ± 0.019
